This passage reports cell number change and AC50 results from PubChem BioAssay AID2685 (National Center for Advancing Translational Sciences (NCATS), 2010).

The structures appear in SMILES notation. Values joined by “and” are separate entries in the source; they are usually repeats but may differ in a detail not shown here. Identical values can stand only once. This is one part of the list. Further columns of the screen follow, without active or inactive calls. The list favours compounds with an active or inconclusive main result. Words in brackets tell the shape of the fitted curve; partial curves, single points and poor fits give uncertain potencies.

A short description of this assay: qHTS Assay for Lipid Storage Modulators in Drosophila S3 Cells.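 As to cell number change: cells counted by Cell Tracker Red CMTPX staining in the red channel.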 To be noted: BODIPY lipid droplet fluorescence, 18-24 h; for cell number change: measured here: cell count max response, cells fed with added oleic acid. In short, it runs like this:
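Drosophila S3 cells loaded with oleic acid (400 uM, as added) and compounds at several concentrations; lipid droplets imaged by 488-nm laser-scanning cytometry, 500–530 nm intensity and object ratio to cell channel. Percent activity normalized to 20 uM Triacsin C.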

The mark [1] stands for this setting: measured here: lipid fluorescence (Fed channel) AC50, cells fed with added oleic acid.
Where [2] appears, read: measured here: cell number channel AC50, cells fed with added oleic acid.

A word on the AC50: it is the concentration at which the activity in the assay is half-maximal.

On to `O=[N+]([O-])c1cc(Cl)cc(/C=N/NC(=S)Nc2cc(S(=O)(=O)N3CCOCC3)ccc2Cl)c1O`, for which the cell number change was -14.7%. Moreover, under setting [1], the AC50 was 0.651 µM [rising, partial curve].

As to `CCOC(=O)[C@@H]1[C@H]2COc3ccccc3[C@H]2N2C(=O)N(c3ccc(F)cc3)C(=O)[C@]12C`, the cell number change was determined as 17.7%. Also, the AC50 under setting [1] is 29.1 µM [rising, single point].

`COC(=O)c1ccc(NC(=O)CCN2CCCCC2)cc1`: the cell number change was -7.17% and -61.4%. Moreover, under setting [2], the AC50 was 32.6 µM [falling, single point]. Moreover, the AC50 under setting [1] was 23.1 µM [falling, partial curve] and 29.1 µM [falling, single point].

As to `O=C(NC1CCCC1)C(c1ccco1)N(C(=O)c1ccco1)c1ccc(F)cc1` (stereo not drawn), the cell number change was 3.85%. Also, under setting [1], the AC50 was 0.13 µM [rising, full curve].

Turning to `CC(=O)c1ccc(NC(=O)c2ccc([N+](=O)[O-])o2)cc1`, the cell number change is -40.7%. In addition, the AC50 under setting [2] was 11.6 µM [falling, partial curve, poor fit]. Moreover, the AC50 under setting [1] is 4.61 µM [falling, full curve].

On to `Cc1ccc(NC(=S)N(CCCN(C)C)Cc2cc3cc4c(cc3[nH]c2=O)OCO4)c(C)c1`, for which the cell number change turned out to be 26.1%. The AC50 under setting [1] was 5.17 µM [rising, full curve, poor fit].

Turning to `CCOc1ccc(S(=O)(=O)Nc2ccc(C(=O)NNC(=O)c3ccncc3)cc2)cc1`, the cell number change is 42.4%. Further, the AC50 under setting [2] is 7.31 µM [rising, full curve].

For `Cc1ccnc(NS(=O)(=O)c2ccc(NC(=O)c3ccc(S(=O)(=O)N4CCCC4)cc3)cc2)n1`, the cell number change was -29.3%. In addition, the AC50 under setting [2] was 5.17 µM [falling, full curve, poor fit]. Under setting [1], the AC50 was 23.1 µM [falling, single point].

`CCc1nnc(NC(=O)CN2CCN(C3CCCCC3)CC2)s1`: the cell number change was -110%. Besides, the AC50 under setting [2] was 0.58 µM [falling, full curve]. Further, the AC50 under setting [1] is 0.411 µM [falling, full curve].

On to `COc1ccc(-c2c(NC(=O)c3ccco3)oc3c(C)cccc3c2=O)cc1`, for which the cell number change is -6.84%. Besides, under setting [2], the AC50 is 3.26 µM [falling, single point]. The AC50 under setting [1] is 6.51 µM [falling, single point].

On to `O=C(O)CCCn1c(=S)[nH]c2c(sc3ccc([N+](=O)[O-])cc32)c1=O`, for which the cell number change was -11.8%. The AC50 under setting [1] was 0.116 µM [rising, full curve, poor fit].

Consider `CC(=O)Nc1ccc(C#Cc2ccc(NC(C)=O)cc2)cc1`, for which the cell number change was -18%. Further, the AC50 under setting [2] was 0.0461 µM [falling, single point]. Moreover, the AC50 under setting [1] is 0.58 µM [falling, single point].

As to `O=C(OCCN1CCCCC1)c1ccccc1Cl`, the cell number change was -72.7%. Further, the AC50 under setting [2] is 29.1 µM [falling, single point]. Besides, the AC50 under setting [1] was 29.1 µM [falling, single point].

Consider `Cc1ccc(CNC(C)(C)CO)cc1`, for which the cell number change was -11.5%. For the same molecule, the AC50 under setting [1] was 13 µM [rising, partial curve, poor fit].

For the molecule `CCOC(=O)c1c(C(F)(F)F)nc2ncccn12`, the cell number change was determined as 6.24%. The AC50 under setting [2] was 6.51 µM [rising, single point].

For the molecule `COc1cc(C(=O)OCC(C)=O)cc(NC(=O)c2ccco2)c1OC`, the cell number change turned out to be 72.7%. Under setting [2], the AC50 was 23.1 µM [rising, single point].

As to `COc1cccc(-c2noc(CCC(=O)NCC3CCCO3)n2)c1` (stereo not drawn), the cell number change was found to be 50.3%. Also, the AC50 under setting [2] is 0.92 µM [rising, full curve, poor fit].

With `O=C(NC1CCCCCC1)C(=O)NC1CC1`, the cell number change is -23.6%.

Consider `COc1ccc(OC)c(S(=O)(=O)Nc2ccc(O)c3ccccc23)c1`, for which the cell number change is -108%. Further, the AC50 under setting [2] was 29.1 µM [falling, single point].

`COc1ccc(N2CCN(C(=O)CSc3ncnc4c3cnn4-c3ccccc3C)CC2)cc1`: the AC50 under setting [2] is 6.51 µM [rising, single point] and the AC50 under setting [1] is 6.51 µM [rising, single point].

For the molecule `COc1cc(C(=O)OC2CCCCC2=O)cc(OC)c1C` (stereo not drawn), the cell number change came out at 7.03%. The AC50 under setting [1] was 0.00461 µM [falling, full curve, poor fit].

Regarding `Cc1ccc(S(=O)(=O)N2CCC(C(=O)OCC(=O)NCCc3ccccc3)CC2)cc1C`, the cell number change was -0.33%. Also, the AC50 under setting [1] is 16.4 µM [rising, single point].

Turning to `CCn1c(SCC(=O)NC2CCCC2)nnc1-c1ccncc1`, the cell number change stood at 3.48%. Moreover, the AC50 under setting [1] is 2.91 µM [falling, single point].

`Cn1c(CC(=O)Nc2ccccc2F)nnc1SCC(=O)NC1CCCCC1`: the cell number change came out at 16.2%. For the same molecule, the AC50 under setting [2] is 1.03 µM [rising, partial curve, poor fit].

Consider `CCCc1nc(SCC(=O)N2c3ccccc3CC2C)c2c(C)c(C)sc2n1` (stereo not drawn), for which the AC50 under setting [1] is 4.11 µM [rising, full curve].

Consider `CCN(CC)CC(O)Cn1c(-c2ccccc2Cl)nc2ccccc21` (stereo not drawn), for which the cell number change is -6.08%. For the same molecule, the AC50 under setting [1] is 0.13 µM [rising, full curve, poor fit].

With `COC(=O)CC1(C(=O)OC)Oc2ccc(Br)cc2C(=O)N1c1cc(Cl)cc(Cl)c1` (stereo not drawn), the cell number change was -3.23%. Besides, the AC50 under setting [2] is 0.00461 µM [falling, full curve, poor fit].

On to `N#Cc1ccc(-n2c(-c3ccccc3)nnc2-c2ccccc2)cc1C#N`, for which the cell number change is -25.9%. Under setting [1], the AC50 was 0.0517 µM [falling, full curve].

On to `CC1(C)CC(=O)C/C(=N/NC(=O)CCCOc2ccc(Cl)cc2Cl)C1`, for which the cell number change stood at 1.24%. Under setting [1], the AC50 is 0.411 µM [falling, full curve, poor fit].

`O=C(NCC(=O)N(c1cnc2ccccc2c1)C(C(=O)NC1CCCC1)c1ccncc1)c1ccco1` (stereo not drawn): the cell number change was 19.1%. Further, the AC50 under setting [1] is 18.4 µM [rising, partial curve, poor fit].

Turning to `CCOc1ccccc1NC(=O)COC(=O)CC(C)(C)CC1=NS(=O)(=O)c2ccccc2N1`, the cell number change came to 15.2%. In addition, under setting [2], the AC50 is 6.51 µM [falling, single point]. The AC50 under setting [1] was 14.6 µM [falling, partial curve, poor fit].

Take `COc1ccc(C(=O)NC(=S)Nc2ccc(NC(=O)c3ccco3)cc2)cc1[N+](=O)[O-]`: the cell number change is -20.3%. For the same molecule, under setting [1], the AC50 is 2.31 µM [rising, partial curve].

With `Cc1nc2ccccc2c2oc(C(=O)Nc3ccc4c(c3)OCCO4)cc12`, the cell number change stood at 0.0697%.

In the case of `Nc1nc(CSC(=S)N2CCN(c3ccccc3)CC2)nc(Nc2ccc(F)cc2)n1`, the cell number change amounted to 31.9%. The half-maximal activity concentration (AC50) under setting [1] is 29.1 µM [falling, single point].
